Results as given in the supplement of paper PMC10338343.
± gives the standard deviation. The list shows a part of the results, in another mix than the full data. The uncertainty is large for many entries.

test system: EfPiwi piRISC loaded with piRNA #1 (26 nt); experiment: pre-steady-state target cleavage rate (min^-1); guide: piRNA #1 5'p-UGAGGUAGUAGGUUGUAUAGUAUCCA; MIWI and MILI are mouse PIWI proteins and EfPiwi is from a freshwater sponge; tags in brackets are library labels; higher = faster piRNA-guided slicing of the target; settings: auxiliary factor: 500 nM Ephydatia muelleri Gtsf1
Method in brief: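 In HEPES–potassium acetate buffer at 33 °C, […] transcribed, DNA-blocked target RNA library was mixed with 1 nM active affinity-purified piRISC carrying one synthetic guide, with or without 500 nM GTSF1 partner protein, for 0–8 or 0–960 min. Uncleaved targets were sequenced and normalised to depth and to weakly complementary targets; three trials were pooled and k3 was capped at 0.0001 min^-1. The pre-steady-state cleavage rate followed from a burst-and-steady-state fit.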

Sequence	pre-steady-state target cleavage rate
GGAGACCUAACUAUACCACCUACUACCUCA	0.0066 ± 0.0031
GGAGACCAUACUAUAGAACGUACUACCUCA	0.00175 ± 0.0035
GGAGACCUAUGAUUACAACGUACUUCCUCA	0.000508 ± 0.0071
GGAGAGGAUACUAUACAACCUACUACGUCA	0.00636 ± 0.0029
GGAGUGGAUUGUAUACAACCUACUACCUCA	0.00594 ± 0.0037
GGAGACCUAUGUAUACAACCUACCACCUCA	0.00171 ± 0.0059
GGAGACCUAUGAUAUGUUGCUACGACCUCA	0.000893 ± 0.0086
GGAGACCUAUCUAUACAACCUACUACCUCU [g2:g20:cont:t1U]	0.993 ± 0.45
GGAGAGGAUACUAAUACAACCUACUACCUCA	0.128 ± 0.048
GGAGACCUUACUAAACAAGCUACUACCUCA	0.000497 ± 0.0086
GGAGACCUAUGAAUACAACCUACUAUCCUCA	0.000332 ± 0.015
GGAGAGGAUUCUAUACUACCUACUACCUCA	0.00299 ± 0.0038
GGAGAGGAUACUAAACAACCUACAACCUCA	0.00196 ± 0.0019
GGAGACCUAUCUAUACAACCUAUCUACCUCA	0.000956 ± 0.0066
GGAGACCUAUGAUAACAACCUACAACGUCA	0.000205 ± 0.021
GGAGACCUAUGUAUACAACCUACUUACCUCA	0.000314 ± 0.011
GGAGUGGAUACUAUAACAACCUACUACCUCA	0.0556 ± 0.021
GGAGACGAUACUAUACAACCUACAUACCUCA	0.00413 ± 0.0021
GGAGACCUUACUAUACAACCUACUACCUCCA	0.00652 ± 0.0028
GGAGACCUAUGAUAACAACCUACUGCCUCA	0.000756 ± 0.0071

Some of the entries above, set out differently.

| Sequence | pre-steady-state target cleavage rate |
| --- | --- |
| GGAGUGGAUUGUAUACAACCUACUACCUCA | 0.00594 ± 0.0037 |
| GGAGACCUAUGUAUACAACCUACCACCUCA | 0.00171 ± 0.0059 |
| GGAGACCUAUGAUAUGUUGCUACGACCUCA | 0.000893 ± 0.0086 |
| GGAGACCUAUCUAUACAACCUACUACCUCU [g2:g20:cont:t1U] | 0.993 ± 0.45 |
| GGAGAGGAUACUAAUACAACCUACUACCUCA | 0.128 ± 0.048 |
| GGAGACCUUACUAAACAAGCUACUACCUCA | 0.000497 ± 0.0086 |
| GGAGACCUAUGAAUACAACCUACUAUCCUCA | 0.000332 ± 0.015 |
| GGAGAGGAUUCUAUACUACCUACUACCUCA | 0.00299 ± 0.0038 |
| GGAGAGGAUACUAAACAACCUACAACCUCA | 0.00196 ± 0.0019 |
| GGAGACCUAUCUAUACAACCUAUCUACCUCA | 0.000956 ± 0.0066 |
| GGAGACCUAUGAUAACAACCUACAACGUCA | 0.000205 ± 0.021 |
| GGAGACCUAUGUAUACAACCUACUUACCUCA | 0.000314 ± 0.011 |

Further entries:

Sequence	pre-steady-state target cleavage rate
GGAGACCAUACUAUACAACCAUACUACCUCA	0.00431 ± 0.003
GGAGACCAUACUAUACAUCCUACAACCUCA	0.00248 ± 0.0024
GGAGAGGAUACUAUACAACCUCUACCUCA	0.00619 ± 0.0034
GGAGACCUAAGUAUACAACCUACUACGUCA	0.00262 ± 0.0028
GGAGACCUAUGAUAUGUUGCUACUAUCCUCA	0.000195 ± 0.015
GGAGACCUAUGAAUACAACCUACUACCUCA [g2:g18:cont:t1A]	0.00706 ± 0.0032
GGAGACCUAUGUAUACAACCUAUCUACCUCA	0.000241 ± 0.014
GGAGACCUUACUAUACAACCUACUUACCUCA	0.00224 ± 0.0023
GGAGACCUAUGAAUACAACGUACUUCCUCA	0.00033 ± 0.0071
GGAGACCUAUGAAUACAACCAUCUACCUCA	0.000602 ± 0.0095
GGAGAGGAUACUAUACAACCAUACUACCUCA	0.00323 ± 0.0026
GGAGACCUAACUAAACAAGCUACUACCUCA	0.0016 ± 0.008
GGAGACGAUUCUAUAGAACCUACUACCUCA	0.00226 ± 0.0018
GGAGACCUAUGAUAACAACCUACGACCUCA	0.000206 ± 0.02
GGAGUGGAUACUAUACAACCAAGUACCUCA	0.00281 ± 0.0018
GGAGACCUAUGAUAUGUUGGUUACUACCUCA	0.0006 ± 0.0054
GGAGACCUAUGAUUACAACCUACUCCCUCA	0.00156 ± 0.0039
GGAGACCUAUGAUUACAAGCUACUACCUCA	0.00109 ± 0.0053
GGAGACCAUACUGAUACAACCUACUACCUCA	0.0368 ± 0.013
GGAGACGAUACUAUACAACCAACUACCACA	0.00406 ± 0.003
